Experimental data: US20170204150A1
Results are given in words; binding and its absence hold for the method and conditions named. Some binding calls cover weakened binding; strength is not graded here.

Protein sequences, listed by entry. Tags and fused reporters are not part of them. Residues count along the entry.
UniProt Q04609, residues 44-750: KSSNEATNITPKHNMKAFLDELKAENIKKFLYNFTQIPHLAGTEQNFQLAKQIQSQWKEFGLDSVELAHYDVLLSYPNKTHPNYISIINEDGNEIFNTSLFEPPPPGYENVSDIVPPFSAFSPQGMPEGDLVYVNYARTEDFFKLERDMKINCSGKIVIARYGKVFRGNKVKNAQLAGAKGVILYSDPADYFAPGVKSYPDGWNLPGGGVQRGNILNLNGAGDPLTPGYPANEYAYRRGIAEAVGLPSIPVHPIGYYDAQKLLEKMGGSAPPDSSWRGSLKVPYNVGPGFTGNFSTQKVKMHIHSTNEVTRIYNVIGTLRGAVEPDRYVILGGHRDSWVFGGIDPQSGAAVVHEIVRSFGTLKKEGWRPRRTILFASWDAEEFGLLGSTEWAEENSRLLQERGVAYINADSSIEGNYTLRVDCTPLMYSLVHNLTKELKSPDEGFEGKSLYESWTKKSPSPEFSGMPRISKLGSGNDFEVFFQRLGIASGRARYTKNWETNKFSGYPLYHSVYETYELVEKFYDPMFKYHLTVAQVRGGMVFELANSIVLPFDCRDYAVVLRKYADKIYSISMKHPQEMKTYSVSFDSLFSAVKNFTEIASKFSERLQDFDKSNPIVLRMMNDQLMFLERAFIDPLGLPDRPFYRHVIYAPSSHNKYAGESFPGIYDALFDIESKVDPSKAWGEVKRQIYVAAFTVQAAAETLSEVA
UniProt P35968, residues 20-764: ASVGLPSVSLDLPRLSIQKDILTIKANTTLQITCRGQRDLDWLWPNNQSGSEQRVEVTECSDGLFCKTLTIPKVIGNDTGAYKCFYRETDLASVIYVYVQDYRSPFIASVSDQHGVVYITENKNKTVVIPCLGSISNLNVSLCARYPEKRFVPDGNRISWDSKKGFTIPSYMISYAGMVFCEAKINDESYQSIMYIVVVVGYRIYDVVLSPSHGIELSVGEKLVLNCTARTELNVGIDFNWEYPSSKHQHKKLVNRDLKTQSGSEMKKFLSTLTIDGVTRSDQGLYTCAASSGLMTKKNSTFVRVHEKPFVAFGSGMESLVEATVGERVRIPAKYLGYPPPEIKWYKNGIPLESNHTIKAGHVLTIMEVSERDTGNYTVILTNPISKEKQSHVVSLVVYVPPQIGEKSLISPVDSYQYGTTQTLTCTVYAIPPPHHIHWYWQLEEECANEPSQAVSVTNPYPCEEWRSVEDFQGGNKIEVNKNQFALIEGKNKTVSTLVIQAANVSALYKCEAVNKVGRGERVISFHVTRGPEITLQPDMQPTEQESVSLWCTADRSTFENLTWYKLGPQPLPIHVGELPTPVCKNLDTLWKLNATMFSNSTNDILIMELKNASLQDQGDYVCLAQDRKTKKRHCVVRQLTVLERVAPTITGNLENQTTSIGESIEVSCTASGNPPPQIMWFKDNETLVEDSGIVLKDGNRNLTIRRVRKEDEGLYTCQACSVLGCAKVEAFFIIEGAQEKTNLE

Assays:
[1] = molecular target: prostate specific membrane antigen (PSMA) (UniProt Q04609); assay: yeast surface display titration
[2] = molecular target: VEGFR2-Fc (UniProt P35968); assay: yeast surface display titration
[3] = molecular target: VEGFR2-Fc (UniProt P35968); assay: soluble protein (Octet)
[4] = molecular target: VEGFR2-Fc (UniProt P35968); assay: yeast surface display, titration with soluble VEGFR2-Fc, % maximum VEGFR2-Fc bound
[5] = molecular target: prostate specific membrane antigen (PSMA) (UniProt Q04609); assay: yeast surface display, titration with soluble PSMA, PSMA bound in arbitrary fluorescence
[6] = molecular target: VEGFR2-Fc (UniProt P35968); assay: Octet, soluble proteins

Measured: binding

B1: VEGFR2/PSMA protein (designed binder)
chain: EVVKAMDVYQRSYCHPIETLVDIFQEYPDEIEYIFKPSCVPLMRCGGCCNDAGLECVPTEESNITMQIMRIKPHQGQHIGEMSFLQHNKCECRPKKDGGGGSGGGGSGGGGSGGGGSEVVKFMDVYQRSYCHPIETLVDIFQEYPSIASWNPWMAFKPSCVPLMRCGGCCNDEGLECVPTEESNITMQIMRNRLFRYLPVRHIGEMSFLQHNKCECRPKKD
binds: [1] | [2] | [3] | [4] | [5]

B2: scVEGFmut (ligand)
chain: APMAEGGGQNHHEVVKAMDVYQRSYCHPIETLVDIFQEYPDEIEYIFKPSCVPLMRCGGCCNDAGLECVPTEESNITMQIMRIKPHQGQHIGEMSFLQHNKCECRPKKDRARQEKCDKPRRGGGGSGGGGSGGGGSGGGGSAPMAEGGGQNHHEVVKFMDVYQRSYCHPIETLVDIFQEYPDEIEYAFKPSCVPLMRCGGCCNDEGLECVPTEESNITMQIMRAKPHQGQHIGEMSFLQHNKCECRPKKDRARQEKCDKPRR
binds: [2] | [3] | [4] | [6]
